Results deposited as PubChem BioAssay AID652272 (Drosophila RNAi Screening Center, 2013).
The deposit covers about 21,000 reagents; shown is an unselected part of those that have a named target and a result. Of all reagents, 503 (2.4%) are marked active. 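Raw plate light values, not normalised; calls rest on replicate z-scores that were not deposited; hits include reporter decreases as well as increases.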 The numbers tell different reagents against one gene apart. A plus sign joins genes that one reagent is predicted to hit. The record does not give: the amount of reagent, the time to read-out.

Assay: 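Genes whose knock-down decreases or increases Hedgehog reporter output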 (primary screen)
System: Drosophila clone 8 (Cl8) cells
Knock-down reagent: long dsRNA against Drosophila genes
Measurement: 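Firefly light from a Hedgehog-responsive ptc promoter reporter and Renilla reference light, both read on a plate reader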
Direction: firefly Hh reporter signal: higher = more ptc reporter light; Renilla reference signal: higher = more Renilla control light
Call rule: 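Hit when the z-score averaged over two replicates is under -2 or over +3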
Meaning of the calls: active = hit: reporter lowered or raised; inactive = not a hit

The first 5 entries as a preview:
| gene | reagent | firefly Hh reporter signal, replicate 1 | firefly Hh reporter signal, replicate 2 | firefly Hh reporter signal, replicate 3 | Renilla reference signal, replicate 1 | Renilla reference signal, replicate 2 | outcome |
| --- | --- | --- | --- | --- | --- | --- | --- |
| phr (GeneID 35735) | 1 | 77042 | 39923 | – | 1977 | 2960 | inactive |
| MCPH1 (GeneID 36272) | 1 | 95076 | 68592 | – | 4320 | 3115 | inactive |
| MCPH1 (GeneID 36272) | 2 | 80851 | 41104 | – | 2057 | 3256 | inactive |
| Upf3 (GeneID 37792) | 1 | 1.32e5 | 1.00e5 | – | 3289 | 2400 | active |
| MESR6 (GeneID 40083) | 1 | 98848 | 54024 | – | 4345 | 2194 | inactive |

The listing, repeating the preview:
| gene | reagent | firefly Hh reporter signal, replicate 1 | firefly Hh reporter signal, replicate 2 | firefly Hh reporter signal, replicate 3 | Renilla reference signal, replicate 1 | Renilla reference signal, replicate 2 | outcome |
| --- | --- | --- | --- | --- | --- | --- | --- |
| phr (GeneID 35735) | 1 | 77042 | 39923 | – | 1977 | 2960 | inactive |
| MCPH1 (GeneID 36272) | 1 | 95076 | 68592 | – | 4320 | 3115 | inactive |
| MCPH1 (GeneID 36272) | 2 | 80851 | 41104 | – | 2057 | 3256 | inactive |
| Upf3 (GeneID 37792) | 1 | 1.32e5 | 1.00e5 | – | 3289 | 2400 | active |
| MESR6 (GeneID 40083) | 1 | 98848 | 54024 | – | 4345 | 2194 | inactive |
| CG12680 (GeneID 31427) | 1 | 70576 | 1.46e5 | – | 2395 | 5281 | inactive |
| CG14957 (GeneID 38386) | 1 | 97594 | 42090 | – | 2663 | 360 | inactive |
| CG4849 (GeneID 43358) | 1 | 46154 | 45650 | – | 1436 | 1865 | inactive |
| Pask (GeneID 37824) | 1 | 1.06e5 | 52907 | – | 4155 | 1956 | inactive |
| GCS1 (GeneID 32073) | 1 | 1.19e5 | 60077 | – | 2881 | 1561 | inactive |
| Spt5 (GeneID 53442) | 1 | 81222 | 42003 | – | 1648 | 2960 | inactive |
| CG18327 (GeneID 36567) | 1 | 96705 | 36049 | – | 2427 | 276 | inactive |
| Ir7g (GeneID 31694) | 1 | 76221 | 2.62e5 | – | 1795 | 9296 | inactive |
| CG42458 (GeneID 2768945) | 1 | 1.01e5 | 2.22e5 | – | 2530 | 8593 | inactive |
| CG42458 (GeneID 2768945) | 2 | 27787 | 27160 | – | 1936 | 1537 | active |
| CG4239 (GeneID 32606) | 1 | 56722 | 53853 | – | 1243 | 931 | inactive |
| CG14961 (GeneID 38414) | 1 | 1.01e5 | 46792 | – | 2459 | 3628 | inactive |
| CG11309 (GeneID 40356) | 1 | 1.03e5 | 65960 | – | 3270 | 1639 | inactive |
| dan (GeneID 43023) | 1 | 88706 | 51341 | – | 2753 | 1450 | inactive |
| NtR (GeneID 43935) | 1 | 1.13e5 | 60529 | – | 2674 | 5398 | inactive |
| CG3328 (GeneID 37871) | 1 | 96732 | 54032 | – | 4257 | 2432 | inactive |
| Rdh (GeneID 2769007) | 1 | 41836 | 46535 | – | 1506 | 2561 | inactive |
| Rdh (GeneID 2769007) | 2 | 60016 | 1.32e5 | 15468 | 1789 | 8708 | inactive |
| Nrg (GeneID 31792) | 1 | 5.09e5 | 1.57e5 | – | 28085 | 3696 | inactive |
| Nrg (GeneID 31792) | 2 | 1.16e5 | 1.05e5 | – | 2576 | 2970 | inactive |
| CG13871 (GeneID 37303) | 1 | 73869 | 52928 | – | 2387 | 4473 | inactive |
| CG1750 (GeneID 43699) | 1 | 63437 | 63997 | – | 1303 | 1872 | inactive |
| Cyp28a5 (GeneID 34817) | 1 | 1.15e5 | 98562 | – | 4311 | 4009 | inactive |
| CG17801 (GeneID 42144) | 1 | 5.34e5 | 1.08e5 | – | 29649 | 3254 | inactive |
| CG11475 (GeneID 37513) | 1 | 63088 | 73594 | – | 2458 | 2723 | inactive |
| CG9897 + asRNA:CR42742 | 1 | 71676 | 50787 | – | 1221 | 5008 | inactive |
| CG32249 (GeneID 317939) | 1 | 5.03e5 | 1.40e5 | 1.11e5 | 3963 | 3731 | inactive |
| CG32249 (GeneID 317939) | 2 | 79003 | 86544 | – | 7296 | 6464 | inactive |
| Btnd (GeneID 31552) | 1 | 70630 | 1.86e5 | – | 2373 | 6867 | inactive |
| CG18675 (GeneID 50169) | 1 | 80612 | 47877 | – | 1962 | 3321 | inactive |
| CG30383 (GeneID 246583) | 1 | 95527 | 1.77e5 | – | 2512 | 7400 | inactive |
| eEF1delta (GeneID 34363) | 1 | 32380 | 25033 | – | 2502 | 1512 | active |
| phtf (GeneID 35583) | 1 | 98855 | 68774 | – | 3683 | 2045 | inactive |
| CG15597 (GeneID 40767) | 1 | 1.48e5 | 1.67e5 | – | 5307 | 4884 | inactive |
| zetaTry (GeneID 36216) | 1 | 97444 | 53027 | – | 2348 | 3952 | inactive |
| TwdlT (GeneID 44790) | 1 | 1.35e5 | 1.21e5 | – | 4120 | 3505 | inactive |
| Bap55 (GeneID 36956) | 1 | 75863 | 56477 | – | 3825 | 2890 | inactive |
| Rsph4a (GeneID 37831) | 1 | 1.78e5 | 1.02e5 | – | 7281 | 4387 | inactive |
| Sf3b2 (GeneID 33514) | 1 | 40371 | 26625 | – | 3538 | 2291 | active |
| ine (GeneID 33659) | 1 | 1.04e5 | 75136 | – | 4160 | 2512 | inactive |
| Nin (GeneID 33757) | 1 | 63877 | 47633 | – | 2806 | 2189 | inactive |
| slpr (GeneID 44111) | 1 | 89066 | 97213 | – | 2033 | 2106 | inactive |
| sif (GeneID 43892) | 1 | 1.14e5 | 2.35e5 | – | 9286 | 8187 | inactive |
| sif (GeneID 43892) | 2 | 86788 | 96951 | – | 7788 | 6648 | inactive |
| emei (GeneID 39250) | 1 | 18084 | 86013 | 5.34e5 | 9554 | 2758 | inactive |
| CG11436 (GeneID 31386) | 1 | 81981 | 1.09e5 | – | 1245 | 3114 | inactive |
| CG14380 (GeneID 41621) | 1 | 1.14e5 | 78659 | – | 4365 | 2264 | inactive |
| Pglym78 (GeneID 43447) | 1 | 92992 | 82576 | – | 1794 | 2336 | inactive |
| CG34217 (GeneID 5740254) | 1 | 1.03e5 | 1.51e5 | – | 2784 | 7338 | inactive |
| CG31344 (GeneID 41835) | 1 | 1.14e5 | 1.01e5 | – | 4086 | 3232 | inactive |
| Nepl6 (GeneID 33893) | 1 | 4.97e5 | 88020 | – | 4173 | 4173 | inactive |
| CG15912 (GeneID 31385) | 1 | 86083 | 2.35e5 | – | 3419 | 8241 | inactive |
